Assay results taken from publication doi:10.1101/456418.

Molecular target: Kinetoplast Polyadenylation Factor 4, C-terminally TAP-tagged (Trypanosoma brucei)
Assay: co-IP

Binder	binding
KPAP1 poly(A) polymerase (enzyme, UniProt B3FB38 1-527) MRKFSAFRSGNTGVKRCITLPWKSSLPPKSDSQWEGLGKSVVRMALASDTGRSAFDECSTARQQLETLVQSTGYDASVFAFGGIVVMGLLEVGGDADFVGVADVEPGVAEAGEIVSRLSREMRRLGLKSSALPKARVPVIKVDRVSKSLPGTPLHHLSTCGIFQFTRQMNNNECISFKSRMEENFGAVNTEWSNNQQFSTVEFSSSSALVAALTEVKRHEGVDIPLRLPVDPRNGPELYRLSFDFCFSSVGLRNSYLLSDVLSKYVFSRHLLLLIKRWGRSSGVINSIDGLLASYALTVMCAHFLIKVGVIPKVSTLRSADEPQLLPPFPDYRPLHDGEDCDLAELGFLTAAFFEYYGAVFDYGKNVVCTTNINLLKKTMRWEKSPGTESGRPPFFEFAIKDPYGLDNIGRNLDSEATEYVRSAHSAALATLLQERGDPDFTVNIITKSPPRPARRSRTLASRGIASATYSSDQLEARHLLKKVAFHERRKSMERFGARAARHTEKQRVVSNVAKDVLGWIKCDNHQ	binds
MERS1 NUDIX hydrolase (PPsome subunit) (enzyme, UniProt B6SBM0 1-395) MRKQLFFTLARPCVAVGRRFISGDNKSIDSSAFISDDDALRGELASALDTEGHALPFDVHLQQPHSSGDGTAGDTSTIQLEKLSHPPARFDLLTNSFVYKWQTKAALARKVSGPMREWAAELKYRTGVHIELEPTYPERLSENAVKGSGSDDGDGTQWGAYETADDVDITVYLFGSERGIFNCHKLMEAAIQQDPVYVRLGIFRRLANSSEVEWLMLRRINRELRPPDIPPISLKLPGKWTLLYERYKEAAIRTLWEETGITVDASNVYPTGHLYQTVPQYYWRVPVRYFVAEVPSDIRVEGPQVVPLQYMRNWDARLLRQSPDPIDRAWAQLADPATGCAWMKASMIDQLQKPLRGDNYMAIRYTPPPYSNLQEVVGLGDGSITPSTGNGEDAS	binds

These are yes or no findings as the source states them, for the method shown. In cells and extracts the contact can be indirect. A result given as binding can be weak or reduced; the word gives no strength.
